The record followed here is patent US8173840B2, “Compounds with high therapeutic index” (Signature R&D Holdings, LLC, priority 2003, dated 2012).

The nature of this data set: Benefits found for amino acid derivatives of drugs (Table 1, key a-q). More on the design: key: Improved taste smell; Desired Octanol/water partition coefficient (i.e. solubility in water); c: Improved stability in vitro and in vivo; Penetration of blood-brain barrier; Elimination of first pass effect in liver; Reduction of enterohepatic recirculation; g: Painless injections with parenteral formulations; h: Improved bioavailability; Increased rate of absorption; j: Reduced side effects; k: Dose proportionability; Selective hydrolysis of the derivative at site of actions; m: Controlled release properties; n: Targeted drug delivery; Reduction in toxicity, hence improved therapeutic ratio; p: Reduced dose; q: Alteration of metabolic pathway to deliver more drug at site of action.

[1] abbreviates: amino acid derivatives of the named drug, each letter is one benefit of key a-q.

Entries after “also recorded” stand apart in the source; their conditions may differ. Like-named read-outs stand apart in the source and are kept apart here. Some results come without the dose or concentration used.

`N[C@@H]1[C@H]2CN(c3nc4c(cc3F)c(=O)c(C(=O)O)cn4-c3ccc(F)cc3F)C[C@@H]12` [Trovafloxacin]: the Improvements with derivatives entry under setting [1] is “a and b and e and h and j and k and o and p”.

In the case of `Cc1c(O)cccc1C(=O)N[C@@H](CSc1ccccc1)[C@H](O)CN1C[C@H]2CCCC[C@H]2C[C@H]1C(=O)NC(C)(C)C` [Nelfinavir], the Improvements with derivatives result under setting [1] was “b and h and i and j and k and o and p”.

Take `CCOC(=O)[C@H](CCc1ccccc1)N[C@H]1CCc2ccccc2N(CC(=O)O)C1=O` [Benazepril]: under setting [1], the Improvements with derivatives entry is “j and o”.

With `CCOC(=O)[C@H](CCc1ccccc1)N[C@@H](C)C(=O)N1CCC[C@H]1C(=O)O` [Enalapril, reference compound], the Improvements with derivatives entry under setting [1] is “j and o”.

Regarding `Cc1c(-c2ccccc2)oc2c(C(=O)OCCN3CCCCC3)cccc2c1=O` [Flavoxate], the Improvements with derivatives result under setting [1] is “b and h and i and j and k and l and o and p”.

As to `CCOC(=O)[C@H](CCc1ccccc1)N[C@@H](C)C(=O)N1[C@H](C(=O)O)C[C@@H]2CCC[C@@H]21` [Ramipril], the Improvements with derivatives result under setting [1] was “j and o”.

`O=C(Oc1ccccc1C(=O)O)c1ccccc1O` [Salsalate]: under setting [1], the Improvements with derivatives result was “b and c and h and i and j and k and o and p”.

`CCCCC(=O)N(Cc1ccc(-c2ccccc2-c2nnn[nH]2)cc1)[C@H](C(=O)O)C(C)C` [Valsartan]: under setting [1], the Improvements with derivatives entry is “b and f and i and j and k and l and o and p”.

For `CCC[C@H](N[C@@H](C)C(=O)N1[C@H](C(=O)O)C[C@@H]2CCCC[C@@H]21)C(=O)OCC` [Perindopril], the Improvements with derivatives entry under setting [1] is “j and o”.

For the compound `CC(C)(C)NCC(O)COc1cccc2c1CC(O)C(O)C2` (stereo not shown) [Nadolol], under setting [1], the Improvements with derivatives result was “b and h and i and j and k and l and o and p”.

Consider `CCOC(=O)[C@H](CCc1ccccc1)N[C@@H](C)C(=O)N1[C@H](C(=O)O)C[C@H]2CCCC[C@@H]21` [Trandolapril], for which the Improvements with derivatives result under setting [1] is “j and o”.

In the case of `CCOC(=O)[C@H](CCc1ccccc1)N[C@@H](C)C(=O)N1Cc2cc(OC)c(OC)cc2C[C@H]1C(=O)O` [Moexipril], the Improvements with derivatives result under setting [1] was “j and o”.

Regarding `CC(c1cc2ccccc2s1)N(O)C(N)=O` (stereo not shown) [Zileuton], the Improvements with derivatives entry under setting [1] was “b and h and i and j and k and o and p”.

Consider `CCC(=O)O[C@](Cc1ccccc1)(c1ccccc1)[C@H](C)CN(C)C` [Propoxyphene], for which the Improvements with derivatives entry is “a, b, c, h, i, j,; also recorded: k, l, o, p”.

With `Nc1nc2c(ncn2COCCO)c(=O)[nH]1` [Acyclovir], the Improvements with derivatives entry under setting [1] is “b and c and h and i and j and k and o and p”.

`CC(C)c1cccc(C(C)C)c1O` [Propofol injection, 2,6-diisopropylphenol, reference compound]: the Improvements with derivatives result is “b, c, d, g,; also recorded: h, j, k, l,; also recorded: m, n, o, p, q”.
